Patent US20240390497A1 (Stanford University, published 2024)
Results are given in words; binding and its absence hold for the method and conditions named. Some results given as binding are weak or reduced against the parent protein; the word gives no strength.

Columns and labels:
[1] = molecular target: T1, human CD93/Fc fusion protein (human, UniProt Q9NPY3 22-580, limits assumed); experiment: ELISA, human CD93/Fc coated on plate
T1 construct: It was biotinylated or DyLight 650-conjugated for staining; also called CD93-Fc chimera protein; CD93-Fc biotinylated protein; not shown: Fc part
T1 sequence (looked up): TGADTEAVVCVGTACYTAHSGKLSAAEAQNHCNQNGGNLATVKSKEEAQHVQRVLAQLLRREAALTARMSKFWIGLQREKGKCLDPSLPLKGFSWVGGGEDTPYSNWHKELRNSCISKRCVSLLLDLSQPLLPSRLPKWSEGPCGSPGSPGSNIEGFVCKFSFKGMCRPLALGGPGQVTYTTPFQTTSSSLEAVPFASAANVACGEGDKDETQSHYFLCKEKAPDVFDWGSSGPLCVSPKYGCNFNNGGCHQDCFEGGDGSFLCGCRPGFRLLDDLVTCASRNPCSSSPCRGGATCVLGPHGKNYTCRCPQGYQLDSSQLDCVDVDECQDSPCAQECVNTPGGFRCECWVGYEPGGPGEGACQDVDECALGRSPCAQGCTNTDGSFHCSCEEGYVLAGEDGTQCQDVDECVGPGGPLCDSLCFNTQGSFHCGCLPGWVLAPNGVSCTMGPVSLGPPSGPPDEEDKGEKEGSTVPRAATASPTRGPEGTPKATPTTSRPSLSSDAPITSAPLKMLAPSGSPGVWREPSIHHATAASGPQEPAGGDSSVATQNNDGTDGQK

[2] = molecular target: T1, human CD93/Fc fusion protein; experiment: ELISA, human CD93/Fc coated on plate, HRP anti-human Kappa secondary, OD490
[3] = molecular target: T1, human CD93/Fc fusion protein; experiment: ELISA on coated human CD93/Fc, HRP anti-human kappa secondary, OD490
Procedure: FIGS. 2A-2O are sets of graphs illustrating that CD93-CAR T cells exert anti-leukemic effects against AML in vitro. FIG. 2A is a bar chart showing that humanized (“HuF11-G1” and “HuF11-G1 TM”) and chimeric F11 (“ChF11-G1”) monoclonal antibodies bind human CD93 with similar affinity. Human CD93/Fc fusion protein was coated in a 96-well plate and different concentrations of the antibodies as indicated were added. HRP-conjugated anti-human Kappa antibody was used as a secondary antibody. CD93 binding activity was measured by reading signals at OD490 […]. FIG. 2B is a cartoon showing the structure of CD93-28z and CD93-BBz CARs. […] Cells were fed with new media every 2-3 days, analyzed for transduction efficiency and phenotype on day 10-11, and processed for downstream experiments. FIG. 2D is a bar graph showing comparing transduction efficiency for each of aCAR molecule and control (“Mock”), measured by flow cytometry on day 10 after T cell activation. […] FIG. 2F is a set of graphs comparing expression levels of markers of T cell activation/exhaustion, including LAG-3, PD-1, TIM-3, and CD39, measured by flow cytometry on day 10 after T cell activation, prior to downstream experiments. […] FIG. 2G is a graph showing CD93 expression on AML cell lines, measured by flow cytometry after staining with biotinylated F11 antibody followed by streptavidin-APC. […]

Measured: binding

B1: humanized F11 monoclonal antibody (HuF11-G1) (antibody, V domains shown)
VH: QVQLVQSGAEVKKPGASVKVSCKASGYTFTDYHMDWVKQAPGQGLEWIGDIDPYNGDTVFNQKFKGKATMTRDTSISTAYMELSRLRSDDTAVYYCTRGGDYWGQGTLVTVSS
VL: DIVMTQTPLSLSVTPGQPASISCRSSQTLVHSNGNTYLHWYLQKPGQPPQLLIYKVSNRFSGVPDRFSGSGSGTDFTLKISRVEAEDVGVYFCSQSTHVPFTFGQGTKLEIK
notes: also called humanized F11 antibody
binds: [1] | [2] | [3]

B2: humanized F11 monoclonal antibody (HuF11-G1 TM) (antibody, V domains shown)
VH: QVQLVQSGAEVKKPGASVKVSCKASGYTFTDYHMDWVKQAPGQGLEWIGDIDPYNGDTVFNQKFKGKATMTRDTSISTAYMELSRLRSDDTAVYYCTRGGDYWGQGTLVTVSS
VL: DIVMTQTPLSLSVTPGQPASISCRSSQTLVHSNGNTYLHWYLQKPGQPPQLLIYKVSNRFSGVPDRFSGSGSGTDFTLKISRVEAEDVGVYFCSQSTHVPFTFGQGTKLEIK
notes: as for B1
binds: [1] | [2] | [3]
